# Test results from patent publication US20190360030.
# For some assays here: The exact form of at least one protein or probe is not confirmed.
# Columns and labels:
# [1] = molecular target: Nfo (endonuclease IV) (Escherichia coli) (UniProt P0A6C1); assay: enzyme reaction in vitro; details: tetrahydrofuran abasic residue at n (position 25); THF probe cut and extended only with amplified target in RPA mix; 10 mM Mg-acetate; products seen by 30 min at 12 nM probe; purified recombinant protein; label: 5'-biotin, 3'-digoxygenin; single-stranded DNA
# [2] = molecular target: UvsX(C) (Bacteriophage T4) (UniProt P04529); assay: activity assay; details: supports amplification with Sizer2, gp32(N), Klenow and PEG; purified recombinant protein; protein details: C-terminal His tag; label: 5'-biotin; single-stranded DNA
Sequence,activity on this sequence [1],activity on this sequence [2]
CATGATTGGATGAATAAGCTGCAGTGATTAAAGGAAAC [THF-Probe 1],active,–
CTCACTATACCTCAGCATCATGATTGGTGAAGGTCCGGCGGCAC [Tester3bio],–,active
